Some of the results follow.

Chains of the proteins cited; added tags and fusions are not shown. Lines headed by an entry give the natural chain unless they say otherwise; changes in a name come on top.
UniProt O95819: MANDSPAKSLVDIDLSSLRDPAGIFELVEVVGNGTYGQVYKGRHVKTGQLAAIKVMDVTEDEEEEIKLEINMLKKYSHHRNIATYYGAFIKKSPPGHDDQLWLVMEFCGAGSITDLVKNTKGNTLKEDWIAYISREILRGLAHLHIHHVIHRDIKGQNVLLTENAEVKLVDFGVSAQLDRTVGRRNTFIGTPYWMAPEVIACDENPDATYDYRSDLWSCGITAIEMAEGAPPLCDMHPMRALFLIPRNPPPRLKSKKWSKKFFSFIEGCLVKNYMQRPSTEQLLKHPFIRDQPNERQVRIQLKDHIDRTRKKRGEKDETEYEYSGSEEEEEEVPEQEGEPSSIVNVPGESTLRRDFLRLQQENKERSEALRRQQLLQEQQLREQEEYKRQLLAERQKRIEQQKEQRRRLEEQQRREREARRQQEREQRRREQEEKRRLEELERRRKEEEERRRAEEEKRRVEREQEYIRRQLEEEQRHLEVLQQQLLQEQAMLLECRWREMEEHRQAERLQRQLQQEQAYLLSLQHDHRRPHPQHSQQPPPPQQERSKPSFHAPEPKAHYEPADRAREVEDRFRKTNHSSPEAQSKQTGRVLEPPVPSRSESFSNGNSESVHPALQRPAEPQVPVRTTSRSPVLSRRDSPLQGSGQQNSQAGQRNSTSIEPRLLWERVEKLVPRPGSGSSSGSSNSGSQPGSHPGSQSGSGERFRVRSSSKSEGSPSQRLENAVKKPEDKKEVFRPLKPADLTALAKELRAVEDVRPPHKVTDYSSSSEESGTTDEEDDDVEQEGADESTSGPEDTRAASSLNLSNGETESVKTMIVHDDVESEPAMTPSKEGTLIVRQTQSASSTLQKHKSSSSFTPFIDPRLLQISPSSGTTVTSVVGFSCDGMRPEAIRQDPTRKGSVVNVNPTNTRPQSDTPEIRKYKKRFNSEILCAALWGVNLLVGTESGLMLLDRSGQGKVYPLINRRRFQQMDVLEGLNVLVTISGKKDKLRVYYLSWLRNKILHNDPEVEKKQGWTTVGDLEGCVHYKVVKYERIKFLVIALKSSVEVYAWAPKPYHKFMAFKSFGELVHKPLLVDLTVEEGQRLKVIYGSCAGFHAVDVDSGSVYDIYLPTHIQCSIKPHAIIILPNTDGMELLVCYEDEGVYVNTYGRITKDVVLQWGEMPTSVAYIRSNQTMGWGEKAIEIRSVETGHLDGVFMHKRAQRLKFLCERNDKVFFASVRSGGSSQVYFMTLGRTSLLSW
UniProt Q969L4: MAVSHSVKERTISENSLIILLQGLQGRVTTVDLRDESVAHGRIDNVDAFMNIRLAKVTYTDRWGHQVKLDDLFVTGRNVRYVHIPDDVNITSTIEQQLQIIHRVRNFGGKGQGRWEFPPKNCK
UniProt P12980: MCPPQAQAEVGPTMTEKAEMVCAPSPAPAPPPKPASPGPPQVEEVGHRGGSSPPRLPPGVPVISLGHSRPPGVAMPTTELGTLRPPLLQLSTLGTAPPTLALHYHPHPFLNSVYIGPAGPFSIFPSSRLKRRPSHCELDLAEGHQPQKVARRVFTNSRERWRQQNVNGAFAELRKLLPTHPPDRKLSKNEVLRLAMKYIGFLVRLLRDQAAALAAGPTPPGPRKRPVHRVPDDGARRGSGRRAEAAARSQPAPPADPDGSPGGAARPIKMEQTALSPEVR
UniProt P10636, whole entry, looked up: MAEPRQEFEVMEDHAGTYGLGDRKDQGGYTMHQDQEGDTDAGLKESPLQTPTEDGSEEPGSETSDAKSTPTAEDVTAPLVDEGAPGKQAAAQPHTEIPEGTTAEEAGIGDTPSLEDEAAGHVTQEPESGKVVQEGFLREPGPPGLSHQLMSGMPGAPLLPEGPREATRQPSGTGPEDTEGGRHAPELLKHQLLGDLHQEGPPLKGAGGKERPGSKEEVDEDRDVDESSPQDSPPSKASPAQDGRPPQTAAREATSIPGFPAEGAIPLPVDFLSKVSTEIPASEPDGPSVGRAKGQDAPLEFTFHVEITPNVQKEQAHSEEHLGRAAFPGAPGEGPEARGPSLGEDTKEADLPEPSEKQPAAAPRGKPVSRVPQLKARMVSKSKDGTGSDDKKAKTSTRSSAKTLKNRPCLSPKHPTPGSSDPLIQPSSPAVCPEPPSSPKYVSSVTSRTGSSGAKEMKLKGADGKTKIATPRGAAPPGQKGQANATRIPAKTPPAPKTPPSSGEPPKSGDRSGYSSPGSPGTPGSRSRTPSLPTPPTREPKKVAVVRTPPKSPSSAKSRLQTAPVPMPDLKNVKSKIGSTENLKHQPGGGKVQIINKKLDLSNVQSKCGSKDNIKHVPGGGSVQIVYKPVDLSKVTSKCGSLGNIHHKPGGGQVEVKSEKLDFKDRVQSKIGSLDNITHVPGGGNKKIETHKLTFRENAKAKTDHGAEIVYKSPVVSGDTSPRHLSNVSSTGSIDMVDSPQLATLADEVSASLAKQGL
UniProt Q86UD3: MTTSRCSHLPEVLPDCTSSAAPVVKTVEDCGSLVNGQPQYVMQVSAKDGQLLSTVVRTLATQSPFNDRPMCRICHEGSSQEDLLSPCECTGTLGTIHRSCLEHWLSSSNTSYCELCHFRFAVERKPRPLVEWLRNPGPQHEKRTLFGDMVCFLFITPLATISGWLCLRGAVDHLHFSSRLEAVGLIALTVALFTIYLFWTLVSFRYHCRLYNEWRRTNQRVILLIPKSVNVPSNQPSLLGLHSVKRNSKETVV
UniProt Q8IVH8: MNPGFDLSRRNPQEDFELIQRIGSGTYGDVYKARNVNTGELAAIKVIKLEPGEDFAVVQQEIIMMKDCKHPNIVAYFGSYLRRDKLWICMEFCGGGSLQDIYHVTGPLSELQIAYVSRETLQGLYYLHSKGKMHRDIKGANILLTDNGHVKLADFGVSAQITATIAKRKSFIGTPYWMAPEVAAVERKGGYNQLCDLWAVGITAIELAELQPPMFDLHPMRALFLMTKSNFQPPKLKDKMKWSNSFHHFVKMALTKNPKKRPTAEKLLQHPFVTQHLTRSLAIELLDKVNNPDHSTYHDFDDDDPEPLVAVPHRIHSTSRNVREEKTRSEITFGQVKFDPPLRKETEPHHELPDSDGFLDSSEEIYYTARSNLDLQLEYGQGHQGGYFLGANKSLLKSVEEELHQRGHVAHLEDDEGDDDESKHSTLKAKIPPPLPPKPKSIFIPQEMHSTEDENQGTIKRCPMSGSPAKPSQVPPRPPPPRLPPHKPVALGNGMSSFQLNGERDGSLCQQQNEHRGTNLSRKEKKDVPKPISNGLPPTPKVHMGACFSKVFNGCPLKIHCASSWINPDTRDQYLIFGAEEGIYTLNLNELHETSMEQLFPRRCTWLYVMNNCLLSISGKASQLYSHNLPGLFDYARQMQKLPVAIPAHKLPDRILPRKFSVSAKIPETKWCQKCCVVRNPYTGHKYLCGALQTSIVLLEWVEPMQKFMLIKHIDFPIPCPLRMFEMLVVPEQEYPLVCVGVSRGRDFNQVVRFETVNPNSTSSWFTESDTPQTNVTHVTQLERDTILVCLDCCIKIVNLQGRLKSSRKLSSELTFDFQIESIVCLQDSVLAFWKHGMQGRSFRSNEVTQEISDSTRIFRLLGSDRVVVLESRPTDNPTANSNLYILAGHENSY
UniProt P27816: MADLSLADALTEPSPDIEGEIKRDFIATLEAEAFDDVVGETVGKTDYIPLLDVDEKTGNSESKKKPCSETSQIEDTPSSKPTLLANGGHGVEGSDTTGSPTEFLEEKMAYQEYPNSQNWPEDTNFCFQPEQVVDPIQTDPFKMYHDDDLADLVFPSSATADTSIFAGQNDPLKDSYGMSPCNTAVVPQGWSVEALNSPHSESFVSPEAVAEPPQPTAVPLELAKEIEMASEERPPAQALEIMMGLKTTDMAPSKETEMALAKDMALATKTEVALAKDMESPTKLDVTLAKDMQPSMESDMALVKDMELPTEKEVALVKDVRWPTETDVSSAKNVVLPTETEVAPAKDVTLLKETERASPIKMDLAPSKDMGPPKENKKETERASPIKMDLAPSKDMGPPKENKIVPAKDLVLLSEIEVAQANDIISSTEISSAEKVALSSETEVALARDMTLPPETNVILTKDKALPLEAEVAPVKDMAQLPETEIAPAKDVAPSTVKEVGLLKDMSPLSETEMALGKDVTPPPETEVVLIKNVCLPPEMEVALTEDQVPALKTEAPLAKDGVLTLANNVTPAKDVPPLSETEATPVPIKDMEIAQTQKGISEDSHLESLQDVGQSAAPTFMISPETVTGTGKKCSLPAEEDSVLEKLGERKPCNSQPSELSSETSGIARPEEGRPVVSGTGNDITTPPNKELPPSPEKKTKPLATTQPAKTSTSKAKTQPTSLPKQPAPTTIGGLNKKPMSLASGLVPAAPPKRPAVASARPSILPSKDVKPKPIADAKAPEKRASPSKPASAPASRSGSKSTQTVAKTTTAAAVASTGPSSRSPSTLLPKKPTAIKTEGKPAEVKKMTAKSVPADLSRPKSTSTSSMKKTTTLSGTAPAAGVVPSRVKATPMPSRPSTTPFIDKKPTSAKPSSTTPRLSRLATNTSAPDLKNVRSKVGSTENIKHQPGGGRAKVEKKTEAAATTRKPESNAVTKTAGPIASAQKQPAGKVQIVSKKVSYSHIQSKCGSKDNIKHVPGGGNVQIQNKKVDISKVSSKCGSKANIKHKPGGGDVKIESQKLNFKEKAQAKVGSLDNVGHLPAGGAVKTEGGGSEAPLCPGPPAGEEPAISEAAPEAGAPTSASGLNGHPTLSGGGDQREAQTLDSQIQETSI
UniProt Q8WVR3: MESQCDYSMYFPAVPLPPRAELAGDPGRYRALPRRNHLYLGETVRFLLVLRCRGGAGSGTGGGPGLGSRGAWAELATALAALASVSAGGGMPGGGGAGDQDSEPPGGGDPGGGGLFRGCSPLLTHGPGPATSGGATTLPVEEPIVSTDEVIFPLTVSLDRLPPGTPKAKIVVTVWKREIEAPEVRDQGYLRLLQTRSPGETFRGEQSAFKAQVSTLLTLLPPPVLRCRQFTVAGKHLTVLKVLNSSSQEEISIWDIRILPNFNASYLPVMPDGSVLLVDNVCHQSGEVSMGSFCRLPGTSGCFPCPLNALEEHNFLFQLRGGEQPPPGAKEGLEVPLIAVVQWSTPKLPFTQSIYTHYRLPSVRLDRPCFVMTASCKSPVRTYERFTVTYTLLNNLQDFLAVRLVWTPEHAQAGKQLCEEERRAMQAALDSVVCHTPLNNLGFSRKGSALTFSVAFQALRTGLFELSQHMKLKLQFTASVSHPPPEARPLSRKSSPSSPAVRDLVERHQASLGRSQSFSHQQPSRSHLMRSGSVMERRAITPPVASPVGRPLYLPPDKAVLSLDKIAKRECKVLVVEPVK
UniProt P83369: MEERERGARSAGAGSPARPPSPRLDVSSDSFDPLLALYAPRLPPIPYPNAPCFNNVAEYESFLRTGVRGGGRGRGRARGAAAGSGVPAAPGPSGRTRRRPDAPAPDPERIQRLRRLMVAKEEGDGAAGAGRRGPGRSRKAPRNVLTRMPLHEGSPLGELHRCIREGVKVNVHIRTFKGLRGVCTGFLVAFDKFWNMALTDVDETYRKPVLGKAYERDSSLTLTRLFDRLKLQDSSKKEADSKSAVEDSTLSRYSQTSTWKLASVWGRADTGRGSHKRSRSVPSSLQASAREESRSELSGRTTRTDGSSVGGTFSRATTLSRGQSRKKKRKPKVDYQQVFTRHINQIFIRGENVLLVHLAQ
UniProt Q9Y6D9: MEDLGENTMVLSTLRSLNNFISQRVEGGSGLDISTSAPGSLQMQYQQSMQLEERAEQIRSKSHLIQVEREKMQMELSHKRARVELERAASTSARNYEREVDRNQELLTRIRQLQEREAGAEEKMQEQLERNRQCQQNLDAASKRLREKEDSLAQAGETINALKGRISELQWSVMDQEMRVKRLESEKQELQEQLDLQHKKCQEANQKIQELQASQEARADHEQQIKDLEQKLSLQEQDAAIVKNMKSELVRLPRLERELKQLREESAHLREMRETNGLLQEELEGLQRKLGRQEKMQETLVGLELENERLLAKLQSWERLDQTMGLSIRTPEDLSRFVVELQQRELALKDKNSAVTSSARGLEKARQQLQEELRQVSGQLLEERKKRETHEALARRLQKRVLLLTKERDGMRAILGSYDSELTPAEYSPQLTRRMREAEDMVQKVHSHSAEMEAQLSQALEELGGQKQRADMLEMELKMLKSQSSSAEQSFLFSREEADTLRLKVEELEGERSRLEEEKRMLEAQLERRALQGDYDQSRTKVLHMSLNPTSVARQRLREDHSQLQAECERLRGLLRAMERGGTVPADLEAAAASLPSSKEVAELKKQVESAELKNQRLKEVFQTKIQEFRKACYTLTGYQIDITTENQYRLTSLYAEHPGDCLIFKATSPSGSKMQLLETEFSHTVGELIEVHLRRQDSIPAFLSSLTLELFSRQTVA
UniProt O15525: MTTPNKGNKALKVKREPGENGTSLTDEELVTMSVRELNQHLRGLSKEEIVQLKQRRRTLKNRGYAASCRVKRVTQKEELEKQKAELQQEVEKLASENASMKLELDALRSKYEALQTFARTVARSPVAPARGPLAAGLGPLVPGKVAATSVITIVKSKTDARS

Our source for the log2 fold change values is the supplement of paper PMC10849652.

Compound in the first assay: CN1CCN(CCOc2cc(OC3CCOCC3)c3c(Nc4c(Cl)ccc5c4OCO5)ncnc3c2)CC1 [saracatinib]
Briefly: log2 fold change, soluble protein after heating vs DMSO (PISA); higher = thermal stabilisation; K562 cells, 10 uM, 30 min; active = over 0.2 and 3.5 SD of the protein, either way, in both replicates (recomputed). The procedure, abridged: (§1)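 K562 cells at 2×10^6 cells/mL were exposed to 10 μM compound for 30 min, then aliquots were heated for 3 min across 48°C-58°C, pooled, and extracted in PBS containing 0.5% NP-40 at 4°C. The supernatant after 21,000xg for 90 min was taken as soluble protein and measured by TMTpro 16plex LC-MS/MS with channel sums equalised. Thermal stability is reported relative to control samples, with values from duplicates. Fold changes are given on a log2 scale.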
Take MAGEA8 (UniProt P43361): the log2 fold change is inactive: -0.006.
As to MAP4K4 isoform 6 (UniProt O95819), the log2 fold change was inactive: -0.108.
In the case of LSM10 (UniProt Q969L4), the log2 fold change is inactive: 0.269.
Still for that read-out and setting: under MAP2K5 (UniProt Q13163) stands inactive: 0.445.
LYPLA1, A0A087X1K9: the log2 fold change was inactive: -0.199.
On the same count and under the same terms, under LRRFIP1 isoform 4 (UniProt Q32MZ4) stands inactive: 0.008; under LYST (UniProt Q99698), inactive: -0.081; under LRRCC1 (UniProt Q9C099), inactive: 0.

Compound in another assay: CN1CCN(c2nc(C3=C(c4c[nH]c5ccccc45)C(=O)NC3=O)c3ccccc3n2)CC1 [sotrastaurin]
The description is as above. The procedure, abridged:
as §1
Take MAP3K10 (UniProt Q02779): the log2 fold change is inactive: -0.208.
On the same count and under the same terms, under MAP7D3 (UniProt Q8IWC1) stands inactive: 0.006.
As for LSM5 (UniProt Q9Y4Y9), the log2 fold change was inactive: -0.058.
The same measure, in the same setting: to MAP3K20 isoform 2 (UniProt Q9NYL2) belongs inactive: 0.059; to LYN isoform 2 (UniProt P07948), inactive: 0.034.
Same read-out and setting: to LYL1 (UniProt P12980) belongs inactive: 0.036; to MAML1 (UniProt Q92585), inactive: -0.051; to MAPT isoform 9 (UniProt P10636), inactive: 0.02.
Take MAP4K2 (UniProt Q12851): the log2 fold change was inactive: -0.184.
MARCHF3 (UniProt Q86UD3): the log2 fold change was inactive: -0.055.
MAP4K3 (UniProt Q8IVH8): the log2 fold change is inactive: -0.284.
The same measure, in the same setting: to MAP4 isoform 5 (UniProt P27816) belongs inactive: -0.16; to LSR (UniProt M0QZL9), inactive: 0.042.
Same read-out and setting: to MAP11 (UniProt Q8WVR3) belongs inactive: -0.08.

Compound in another assay: CN1CC[C@H](c2c(O)cc(O)c3c(=O)cc(-c4ccccc4Cl)oc23)[C@H](O)C1 [alvocidib]
Described as above. The gist of the method:
as §1
In the case of MAP7D3 (UniProt Q8IWC1), the log2 fold change is inactive: 0.241.
Same read-out and setting: to LSM11 (UniProt P83369) belongs inactive: 0.111; to MAD1L1 (UniProt Q9Y6D9), inactive: -0.021.
Same read-out and setting: to LSM5 (UniProt Q9Y4Y9) belongs inactive: -0.531; to MAGEA1 (UniProt P43355), inactive: -0.026.
The same measure, in the same setting: to LYL1 (UniProt P12980) belongs inactive: 0.046; to MANSC1 (UniProt Q9H8J5), inactive: -0.315.
Regarding MAFG (UniProt O15525), the log2 fold change is inactive: 0.124.
Still for that read-out and setting: to MAP11 (UniProt Q8WVR3) belongs inactive: -0.268.
